PubChem BioAssay AID1224828, NIAID, 2016
Screen: 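Find genes required for NF-kappaB p65 moving into the nucleus after LPS in mouse macrophages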 (primary screen). Cell system: mouse RAW264.7 G9 macrophage reporter cells (GFP-p65, Tnf promoter-mCherry). Knock-down reagent: siRNA pool against mouse genes, 100 nM. Timing: 2 days siRNA transfection, then 40 min LPS before fixation. Conditions: LPS (Salmonella minnesota R595) at 10 ng/ml. Read-out: 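Microscopy ratio of nuclear to perinuclear-ring GFP-p65 signal, scaled to the plate median; gene score is the average of two replicate robust z-scores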. Reading the numbers: p65 translocation robust z-score: higher = more nuclear NF-kappaB p65 after LPS than the plate median; nuclear/cytoplasmic p65 ratio: higher = more nuclear NF-kappaB p65. Hit rule: 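Called active when z exceeds 3.3 or falls under -1.56 (median of Tlr4 controls), giving activity score of at least 50; no calls for control wells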. Meaning of the calls: active = hit (p65 shift raised or lowered); inactive = no clear change.
The deposit covers about 17,000 reagents; shown is a part drawn at random. Over the whole deposit, 762 (4.5%) got an active call. 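Active calls include both raised and lowered p65 entry, mostly lowered; wells with fewer than 50 cells lack a z-score.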 Raw values vary from plate to plate and are shown uncorrected. No sequences are given here.

{"target": "Ranbp17 (RAN binding protein 17)", "p65 translocation robust z-score": 0.82, "nuclear/cytoplasmic p65 ratio, rep 1": 1.48, "nuclear/cytoplasmic p65 ratio, rep 2": 1.31, "low cell count flag": "enough cells to score", "Call": "inactive"}
{"target": "Psmb11 (proteasome (prosome, macropain) subunit, beta type, 11)", "p65 translocation robust z-score": 1.11, "nuclear/cytoplasmic p65 ratio, rep 1": 1.57, "nuclear/cytoplasmic p65 ratio, rep 2": 1.54, "low cell count flag": "enough cells to score", "Call": "inactive"}
{"target": "Osgep (O-sialoglycoprotein endopeptidase)", "p65 translocation robust z-score": -0.08, "nuclear/cytoplasmic p65 ratio, rep 1": 1.42, "nuclear/cytoplasmic p65 ratio, rep 2": 1.24, "low cell count flag": "enough cells to score", "Call": "inactive"}
{"target": "Zdhhc21 (zinc finger, DHHC domain containing 21)", "p65 translocation robust z-score": 0.76, "nuclear/cytoplasmic p65 ratio, rep 1": 1.55, "nuclear/cytoplasmic p65 ratio, rep 2": 1.3, "low cell count flag": "enough cells to score", "Call": "inactive"}
{"target": "Pheta1 (PH domain containing endocytic trafficking adaptor 1)", "nuclear/cytoplasmic p65 ratio, rep 1": 1.73, "nuclear/cytoplasmic p65 ratio, rep 2": 2.36, "low cell count flag": "fewer than 50 cells per well; well left out of scoring", "Call": "inactive"}
{"target": "Tex47 (testis expressed 47)", "p65 translocation robust z-score": 1.76, "nuclear/cytoplasmic p65 ratio, rep 1": 1.47, "nuclear/cytoplasmic p65 ratio, rep 2": 1.48, "low cell count flag": "enough cells to score", "Call": "inactive"}
{"target": "Rsph6a (radial spoke head 6 homolog A (Chlamydomonas))", "nuclear/cytoplasmic p65 ratio, rep 1": 1.34, "nuclear/cytoplasmic p65 ratio, rep 2": 1.19, "low cell count flag": "fewer than 50 cells per well; well left out of scoring", "Call": "inactive"}
{"target": "Zfp74 (zinc finger protein 74)", "nuclear/cytoplasmic p65 ratio, rep 1": 1.18, "nuclear/cytoplasmic p65 ratio, rep 2": 1.28, "low cell count flag": "fewer than 50 cells per well; well left out of scoring", "Call": "inactive"}
{"target": "Rbx1 (ring-box 1)", "p65 translocation robust z-score": 0.96, "nuclear/cytoplasmic p65 ratio, rep 1": 1.61, "nuclear/cytoplasmic p65 ratio, rep 2": 1.69, "low cell count flag": "enough cells to score", "Call": "inactive"}
{"target": "Vav1 (vav guanine nucleotide exchange factor 1)", "p65 translocation robust z-score": 0.03, "nuclear/cytoplasmic p65 ratio, rep 1": 1.55, "nuclear/cytoplasmic p65 ratio, rep 2": 1.48, "low cell count flag": "enough cells to score", "Call": "inactive"}
{"target": "Adamts10 (ADAM metallopeptidase with thrombospondin type 1 motif 10)", "p65 translocation robust z-score": 0.59, "nuclear/cytoplasmic p65 ratio, rep 1": 1.78, "nuclear/cytoplasmic p65 ratio, rep 2": 1.69, "low cell count flag": "enough cells to score", "Call": "inactive"}
{"target": "Ms4a10 (membrane-spanning 4-domains, subfamily A, member 10)", "p65 translocation robust z-score": 0.16, "nuclear/cytoplasmic p65 ratio, rep 1": 1.82, "nuclear/cytoplasmic p65 ratio, rep 2": 1.61, "low cell count flag": "enough cells to score", "Call": "inactive"}

Limited to “nuclear/cytoplasmic p65 ratio, rep 2”, for 2 of the entries above:
Rbx1 (ring-box 1)	1.69
Vav1 (vav guanine nucleotide exchange factor 1)	1.48
